Results deposited as PubChem BioAssay AID652243 (Drosophila RNAi Screening Center, 2013).
Purpose: 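Fly regulators of androgen-dependent reporter output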 (primary screen). Cell system: Drosophila S2R+ cells. Reagents: long dsRNA against Drosophila genes. Duration: 72 h (48 h, then 24 h hormone). Treatment: synthetic androgen R1881 at 10 nM for 24 h. Read-out: 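Per-well raw luminescence of the androgen-driven firefly reporter and of the Renilla control, two replicates each, without normalisation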. Direction: firefly reporter light: higher = more light from androgen-responsive reporter; Renilla control light: higher = more constitutive control signal (cell number, transfection). Rule for the call: 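Hit when the log firefly-to-Renilla ratio dropped or increased by a fixed fold versus the mean of GFP or LacZ controls across duplicate plates; lowering cut given as 1.5 and as 3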. Calls: active = hit: reporter lowered or raised; inactive = no hit.
The screen tested about 24,000 reagents; shown is a random part of those with a known target gene and a result. In the full data, 246 (1%) were called active. 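Plates not normalised; calls are printed but the firefly/Renilla ratio behind them is not deposited; fold cut for lowering reported inconsistently.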 Raw values are not corrected between plates. A number with no mark means an inactive call. Reagents against one gene are numbered here. A plus sign joins genes that one reagent is predicted to hit. The record does not give: the amount of reagent.

Target gene	reagent	firefly reporter light, replicate 1	firefly reporter light, replicate 2	Renilla control light, replicate 1	Renilla control light, replicate 2
FucT6 (GeneID 32122)	1	1.01e5	79914	5.80e5	6.19e5
FucT6 (GeneID 32122)	2	2.84e5	3.73e5	7.86e5	8.13e5
Or19a (GeneID 59214)	1	1.45e5	99983	2.09e5	2.02e5
Sgp (GeneID 34188)	1	6.94e5	6.81e5	1.62e6	1.59e6
mon2 (GeneID 326157)	1	1.41e5	2.54e5	1.32e6	1.83e6
eEFSec (GeneID 37444)	1	2.10e5	2.06e5	1.68e6	1.28e6
Ythdc1 (GeneID 38420)	1	6.83e5	7.05e5	9.63e5	6.91e5
CG4630 (GeneID 36458)	1	9.71e5	7.44e5	1.28e6	1.14e6
CG4630 (GeneID 36458)	2	3.70e5	2.87e5	1.01e6	7.63e5

Not a retest: an excerpt of the list.
Target gene	reagent	firefly reporter light, replicate 1	firefly reporter light, replicate 2	Renilla control light, replicate 1	Renilla control light, replicate 2
eEFSec (GeneID 37444)	1	2.10e5	2.06e5	1.68e6	1.28e6
Ythdc1 (GeneID 38420)	1	6.83e5	7.05e5	9.63e5	6.91e5
CG4630 (GeneID 36458)	1	9.71e5	7.44e5	1.28e6	1.14e6
CG4630 (GeneID 36458)	2	3.70e5	2.87e5	1.01e6	7.63e5

The listing continues:
Target gene	reagent	firefly reporter light, replicate 1	firefly reporter light, replicate 2	Renilla control light, replicate 1	Renilla control light, replicate 2
inaF-B (GeneID 8674114)	1	8.49e5	6.35e5	1.42e6	7.56e5
DUBAI + Tmem18	1	1.29e5	1.70e5	2.92e5	4.11e5
CG31827 + CG18478	1	1.20e5	1.42e5	1.60e6	1.91e6
Aldh7A1 (GeneID 40097)	1	55188	35261	4.40e5	3.78e5
CG17154 (GeneID 39373)	1	1.82e5	1.67e5	2.43e6	1.96e6
CG15536 (GeneID 43610)	1	7.08e5	8.93e5	2.01e6	1.76e6
CG15536 (GeneID 43610)	2	7.57e5	1.22e6	7.21e5	9.06e5
CG15536 (GeneID 43610)	3	4.89e5	4.31e5	2.68e5	4.62e5
Pka-C1 (GeneID 34284)	1	6.25e5	7.62e5	1.69e6	1.98e6
Pka-C1 (GeneID 34284)	2	5.10e5	5.24e5	1.53e5	1.59e5
Pka-C1 (GeneID 34284)	3	3.12e5	5.08e5	1.03e6	1.64e6
Rcd4 (GeneID 34158)	1	2.34e5	91690	1.67e6	9.13e5
IleRS-m (GeneID 39762)	1	1.22e5	1.45e5	1.53e6	1.55e6
CG13297 (GeneID 38711)	1	2.07e5	1.74e5	2.51e6	2.32e6
Smg6 (GeneID 42994)	1	1.37e5	1.02e5	1.29e6	1.10e6
Smg6 (GeneID 42994)	2	3.19e5	3.01e5	4.79e5	6.78e5
